Publication PMC10887108, “Novel Brain-Penetrant, Small-Molecule Tubulin Destabilizers for the Treatment of Glioblastoma” (Biomedicines, 2024)
Like-named read-outs stand apart in the source and are kept apart here.

System: U87 cells
Assay: Reversibility (washout) cell viability assay
Format: cell-based
Conditions: Homo sapiens, U-87 MG

COc1cc2c(c(OC)c1OC)-c1ccc(OC)c(=O)cc1[C@@H](NC(C)=O)CC2 [colchicine, reference compound]
IC50 (72 h, read-out: IC50 cell viability, no-washout): 13 nM | IC50 (read-out: IC50 cell viability, after washout): 80 nM
